Measured values as given in patent publication US20100256148A1, “USE OF CFMS INHIBITOR FOR TREATING OR PREVENTING BONE CANCER AND THE BONE LOSS AND BONE PAIN ASSOCIATED WITH BONE CANCER” (priority 2007, published 2010).
Where a name gives a salt, the structure may show the parent alone. For at least one compound, name, drawing or mass did not settle the structure.

How the values were obtained:
[1] = test system: 110 other kinases; assay: Kinase specificity profiling vs. 110 other kinases; assay type: biochemical; conditions: 1 μM
[2] = test system: H460, MDA-MB-231, A375; assay: Growth factor-independent proliferation of adenocarcinoma cells; assay type: cell-based, human; conditions: 5 μM; monohydrochloride
[3] = test system: MRMT-1 rat mammary gland carcinoma cells; assay: Rat MRMT-1 bone metastasis model (osteolysis, osteoclasts, tumor); assay type: in vivo; conditions: day 17
Experimental: Rat MRMT-1 bone metastasis model. Inoculation of rat mammary MRMT-1 adenocarcinoma cells into tibiae has been described as a bone metastasis model (Medhurst S J, et al., Pain 2002; 96:129-40. An adaptation of the model (Roudier M P, et al., Clin Exp Metastasis 2006, 23:167-75) was performed by MDS Pharma Services (Bothel, Wash.). Female Sprague-Dawley rats (Harlan Sprague Dawley, Inc., Indianapolis, Ind.) approximately 125-150 grams were acclimated one week. The animals were anesthetized with ketamine/xylazine, and the right leg area was shaved and scrubbed with chlorhexadine and 70% ethanol (SOP-SUR026). A 1-cm rostral-caudal incision was made in the skin over the top half of the tibia. Blunt-dissection exposed the proximal tibia, and a Hamilton syringe guided by a 23-gauge needle was used to inject 3 μl of saline (sham) or saline containing 3×10^4 MRMT-1 cells into the medullary cavity of the right proximal tibia of each rat. The injection site was closed with bone wax. The wound was closed with surgical staples. […] To serve as a control, a fourth group was dosed QOD sc with 0.03 mg/kg zoledronate in saline. Eight rats were dosed per group. Rats were sacrificed on Day 17. […] Microradiographs were scored for tumor-induced osteolysis as follows: 0, no signs of destruction; 1, one to three small radiolucent lesions; 2, three to six lesions and loss of medullary bone; 3, loss of medullary bone and erosion of cortical bone; 4, full thickness uni-cortical bone loss; 5, full thickness bi-cortical bone loss and/or displaced skeletal fracture. […] For each tibia, the numbers of tumor-associated TRAP^+ osteoclasts were counted in the three 200×-fields with highest osteoclast frequency. A semi-quantitative three-point scoring method was used to compare treatment groups with regards to trabecular bone volume (3, >40 area; 2, >10%<40% area (normal); 1, 1-10% area; 0, none) and tumor volume (3, large; 2, moderate; 1, small; 0, none).

[4] = test system: MRMT-1 cells; assay: Tactile (mechanical) allodynia in the MRMT-1 model; assay type: in vivo, rat; conditions: final time point
Experimental: Rat MRMT-1 bone metastasis model. Inoculation of rat mammary MRMT-1 adenocarcinoma cells into tibiae has been described as a bone metastasis model (Medhurst S J, et al., Pain 2002; 96:129-40. An adaptation of the model (Roudier M P, et al., Clin Exp Metastasis 2006, 23:167-75) was performed by MDS Pharma Services (Bothel, Wash.). Female Sprague-Dawley rats (Harlan Sprague Dawley, Inc., Indianapolis, Ind.) approximately 125-150 grams were acclimated one week. The animals were anesthetized with ketamine/xylazine, and the right leg area was shaved and scrubbed with chlorhexadine and 70% ethanol (SOP-SUR026). A 1-cm rostral-caudal incision was made in the skin over the top half of the tibia. […] Microradiographs were scored for tumor-induced osteolysis as follows: 0, no signs of destruction; 1, one to three small radiolucent lesions; 2, three to six lesions and loss of medullary bone; 3, loss of medullary bone and erosion of cortical bone; 4, full thickness uni-cortical bone loss; 5, full thickness bi-cortical bone loss and/or displaced skeletal fracture. […] For each tibia, the numbers of tumor-associated TRAP^+ osteoclasts were counted in the three 200×-fields with highest osteoclast frequency. […]
Pain Behavioral Assessments. […] The behavioral test for tactile allodynia, measured prior to surgery, was used for randomization of animals to the treatment groups. […]

CN(C)CC(=O)N1CCC(c2ccc(NC(=O)c3nc(C#N)c[nH]3)c(C3=CCCCC3)c2)CC1 [JNJ-141, 4-cyano-N-[2-(1-cyclohexen-1-yl)-4-[1-[(dimethylamino)acetyl]-4-piperidinyl]phenyl]-1H-imidazole-2-carboxamide monohydrochloride]
inhibition of ninety-three of 110 other kinases [1]: less than fifty percent
growth factor-independent (serum-dependent) proliferation in culture [2]: not affected
rats with erosion still undetectable by microradiography ([3]; 20 or 60 mg/kg): three of fourteen
rats with one to three small radiolucent lesions ([3]; 20 or 60 mg/kg): eleven of fourteen
full thickness cortical bone lesions ([3]; treated rats): not observed
mechanical allodynia compared to tumor-inoculated animals ([4]; JNJ-141 20 mpk, p<0.05): decreased allodynia
mechanical allodynia compared to tumor-inoculated animals ([4]; JNJ-141 60 mpk, p<0.01): decreased allodynia
